{
  "source": "PubChem BioAssay AID463183",
  "about": "(Sanford-Burnham Center for Chemical Genomics, 2010)",
  "note": "The list shows a part of the results. Further columns of the screen follow, without active or inactive calls. The list favours compounds with an active or inconclusive main result.",
  "data": [
    {"assay": "blockers of oleate-driven lipid droplets in liver cells – imaging, AML12 mouse hepatocytes, single concentration, high-content, confirmation (AID 463183);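 note: cells counted after overnight compound exposure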", "settings": "BODIPY lipid droplet imaging, measured here: cell count, cytotoxicity, at 5.2 µM, droplets induced with 100 µM oleic acid", "units": {"cell count": "cells"}, "values": [
      {"smiles": "Cc1cccc(NC(=O)CSc2nc3ccccc3nc2N2CCCC2)c1", "cell count": 1490},
      {"smiles": "CCn1cc([N+](=O)[O-])c(C(=O)N2N=C(c3ccc4ccccc4c3)CC2c2cc(Br)ccc2O)n1", "note": "(configuration not stated)", "cell count": 1620},
      {"smiles": "CCOc1ncccc1C(=O)OC(C)C(=O)Nc1ccc(CC)cc1", "note": "(configuration not stated)", "cell count": 1640},
      {"smiles": "COc1ccc(C(C(=O)NC(C)(C)C)N(Cc2cccs2)C(=O)CCC(=O)Nc2cc(C)on2)cc1", "note": "(configuration not stated)", "cell count": 1630},
      {"smiles": "COc1ccc(-c2csc(NNC3=NCCCCC3)n2)cc1", "cell count": 1580},
      {"smiles": "CCOc1cc2c(cc1OCC)C(c1ccc(OC)cc1)N(c1ccccc1)C(=O)C2", "note": "(configuration not stated)", "cell count": 1630},
      {"smiles": "COc1ccc2c(c1)-c1c(ssc1=S)C(C)(C)N2S(=O)(=O)c1ccc(C)cc1", "cell count": 1660},
      {"smiles": "Cc1ccc(-c2cc(-c3c(C)nn(C)c(=O)c3N)[nH]n2)cc1", "cell count": 1570},
      {"smiles": "Cc1cccc(NC2=C(NCCO)C(=O)c3ccccc3C2=O)c1", "cell count": 1560},
      {"smiles": "Cc1ccccc1N/C(=N/S(=O)(=O)c1ccccc1)c1ccc(F)cc1", "cell count": 1600},
      {"smiles": "CC1=C(C(=O)NC2CCCc3c2cnn3-c2cccc(C)c2C)OCCO1", "note": "(configuration not stated)", "cell count": 1630},
      {"smiles": "O=C(Nc1ccc(Br)cc1)c1cccc(OC(=S)N2CCOCC2)c1", "cell count": 1570},
      {"smiles": "COc1ccccc1/C=C/C(=O)NCC(=O)N/N=C/c1cc(Br)ccc1OC", "cell count": 1590},
      {"smiles": "CC(C)n1c(O)c(N=NC(=O)C2COc3ccccc3O2)c2ccccc21", "note": "(configuration not stated)", "cell count": 1620},
      {"smiles": "COc1ccc(OC)c(/C=C/C(=O)N(C)CC(=O)Nc2cc(C)ccc2C)c1", "cell count": 1590},
      {"smiles": "COc1ccc(/C=C(\\NC(=O)c2cccs2)C(=O)Nc2cccc3ccccc23)cc1OC", "cell count": 1560},
      {"smiles": "COc1ccc(NC(=O)CN2C(=O)NC(c3ccccc3)(c3ccccc3)C2=O)cc1OC", "cell count": 1640}
    ]}
  ]
}
